The source of these data is article PMC7862277.

Protein sequences, listed by entry. Tags and fused reporters are not part of them. Residues count along the entry.
UniProt P07355: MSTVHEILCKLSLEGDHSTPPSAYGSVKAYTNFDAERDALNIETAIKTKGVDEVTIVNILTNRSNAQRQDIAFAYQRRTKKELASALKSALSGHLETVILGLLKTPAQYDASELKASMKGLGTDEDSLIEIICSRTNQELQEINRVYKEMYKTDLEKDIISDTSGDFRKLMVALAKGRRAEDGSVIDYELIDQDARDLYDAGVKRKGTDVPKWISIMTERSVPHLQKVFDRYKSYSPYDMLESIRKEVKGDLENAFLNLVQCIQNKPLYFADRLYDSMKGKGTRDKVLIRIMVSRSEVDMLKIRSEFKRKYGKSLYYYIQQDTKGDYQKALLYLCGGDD
UniProt P19474: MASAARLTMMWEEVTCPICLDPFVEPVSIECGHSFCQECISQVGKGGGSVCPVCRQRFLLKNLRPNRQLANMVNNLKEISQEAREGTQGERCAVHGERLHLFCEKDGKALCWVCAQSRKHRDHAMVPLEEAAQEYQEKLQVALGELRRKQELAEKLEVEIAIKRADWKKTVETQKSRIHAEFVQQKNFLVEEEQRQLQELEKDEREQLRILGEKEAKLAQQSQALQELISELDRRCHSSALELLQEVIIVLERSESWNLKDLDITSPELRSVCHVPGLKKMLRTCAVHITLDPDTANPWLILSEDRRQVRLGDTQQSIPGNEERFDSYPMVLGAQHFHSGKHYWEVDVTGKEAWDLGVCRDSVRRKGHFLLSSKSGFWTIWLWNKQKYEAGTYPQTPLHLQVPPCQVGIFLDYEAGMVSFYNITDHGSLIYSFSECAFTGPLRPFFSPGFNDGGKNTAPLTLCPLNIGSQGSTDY
UniProt P67809: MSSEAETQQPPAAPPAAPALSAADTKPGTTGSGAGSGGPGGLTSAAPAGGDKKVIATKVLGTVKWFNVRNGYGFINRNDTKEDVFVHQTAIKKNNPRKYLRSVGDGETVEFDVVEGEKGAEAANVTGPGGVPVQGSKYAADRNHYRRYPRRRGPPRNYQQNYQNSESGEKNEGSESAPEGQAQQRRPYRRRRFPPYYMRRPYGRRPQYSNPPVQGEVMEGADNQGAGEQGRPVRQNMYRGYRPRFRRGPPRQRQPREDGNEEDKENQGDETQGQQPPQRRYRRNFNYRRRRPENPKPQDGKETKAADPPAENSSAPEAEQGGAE
UniProt P11021, residues 19-654: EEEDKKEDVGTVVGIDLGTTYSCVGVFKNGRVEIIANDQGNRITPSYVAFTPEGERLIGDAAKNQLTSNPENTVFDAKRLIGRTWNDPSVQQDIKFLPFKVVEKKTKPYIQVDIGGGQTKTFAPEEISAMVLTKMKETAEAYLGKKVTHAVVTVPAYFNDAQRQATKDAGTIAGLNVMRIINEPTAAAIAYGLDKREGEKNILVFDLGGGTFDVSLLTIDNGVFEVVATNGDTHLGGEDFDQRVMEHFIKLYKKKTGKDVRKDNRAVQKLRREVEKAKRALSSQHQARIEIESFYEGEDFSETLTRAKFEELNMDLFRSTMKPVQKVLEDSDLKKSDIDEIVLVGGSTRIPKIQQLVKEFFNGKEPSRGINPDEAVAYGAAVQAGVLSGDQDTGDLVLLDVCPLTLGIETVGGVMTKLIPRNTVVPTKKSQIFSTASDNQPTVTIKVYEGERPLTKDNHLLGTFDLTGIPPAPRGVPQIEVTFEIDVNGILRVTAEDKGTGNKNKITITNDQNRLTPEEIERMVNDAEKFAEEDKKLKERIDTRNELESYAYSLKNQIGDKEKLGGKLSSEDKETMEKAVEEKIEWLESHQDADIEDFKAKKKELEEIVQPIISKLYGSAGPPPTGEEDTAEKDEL
UniProt P03372: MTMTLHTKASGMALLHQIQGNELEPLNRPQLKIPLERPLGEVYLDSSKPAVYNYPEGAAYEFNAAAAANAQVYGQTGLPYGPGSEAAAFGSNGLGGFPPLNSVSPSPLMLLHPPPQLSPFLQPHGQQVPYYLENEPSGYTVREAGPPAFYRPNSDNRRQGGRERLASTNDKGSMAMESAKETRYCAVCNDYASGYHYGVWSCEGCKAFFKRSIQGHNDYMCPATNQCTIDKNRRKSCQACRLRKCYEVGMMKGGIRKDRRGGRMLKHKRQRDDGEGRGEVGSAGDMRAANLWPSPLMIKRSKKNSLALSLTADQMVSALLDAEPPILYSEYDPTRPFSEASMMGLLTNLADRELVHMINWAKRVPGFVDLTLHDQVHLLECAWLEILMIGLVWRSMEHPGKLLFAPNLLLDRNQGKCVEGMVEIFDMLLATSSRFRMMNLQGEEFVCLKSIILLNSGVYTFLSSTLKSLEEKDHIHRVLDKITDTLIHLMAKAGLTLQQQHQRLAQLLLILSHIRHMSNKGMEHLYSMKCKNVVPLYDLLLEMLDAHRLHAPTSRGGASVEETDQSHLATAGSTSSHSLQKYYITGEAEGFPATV
UniProt P34932: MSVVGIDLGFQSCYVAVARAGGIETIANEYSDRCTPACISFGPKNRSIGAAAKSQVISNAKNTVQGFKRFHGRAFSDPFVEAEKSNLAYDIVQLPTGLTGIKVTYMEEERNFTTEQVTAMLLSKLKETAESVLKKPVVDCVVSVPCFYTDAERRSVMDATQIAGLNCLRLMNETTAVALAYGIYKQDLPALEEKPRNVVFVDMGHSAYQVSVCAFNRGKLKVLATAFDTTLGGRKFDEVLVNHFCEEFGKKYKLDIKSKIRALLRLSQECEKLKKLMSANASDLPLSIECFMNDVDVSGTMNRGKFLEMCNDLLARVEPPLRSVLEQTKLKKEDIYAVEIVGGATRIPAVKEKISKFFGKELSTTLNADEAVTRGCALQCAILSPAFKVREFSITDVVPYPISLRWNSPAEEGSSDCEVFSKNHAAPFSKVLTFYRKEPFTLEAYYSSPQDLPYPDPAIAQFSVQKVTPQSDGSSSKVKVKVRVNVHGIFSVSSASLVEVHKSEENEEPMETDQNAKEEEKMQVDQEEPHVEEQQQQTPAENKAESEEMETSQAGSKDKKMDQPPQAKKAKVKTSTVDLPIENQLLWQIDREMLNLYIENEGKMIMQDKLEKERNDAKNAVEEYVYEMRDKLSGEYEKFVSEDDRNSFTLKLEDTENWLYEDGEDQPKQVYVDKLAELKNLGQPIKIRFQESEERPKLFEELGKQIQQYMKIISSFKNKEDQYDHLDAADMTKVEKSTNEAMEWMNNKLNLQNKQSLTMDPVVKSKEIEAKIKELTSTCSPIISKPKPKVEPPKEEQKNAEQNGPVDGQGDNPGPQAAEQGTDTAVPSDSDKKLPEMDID
UniProt P38646, residues 47-679: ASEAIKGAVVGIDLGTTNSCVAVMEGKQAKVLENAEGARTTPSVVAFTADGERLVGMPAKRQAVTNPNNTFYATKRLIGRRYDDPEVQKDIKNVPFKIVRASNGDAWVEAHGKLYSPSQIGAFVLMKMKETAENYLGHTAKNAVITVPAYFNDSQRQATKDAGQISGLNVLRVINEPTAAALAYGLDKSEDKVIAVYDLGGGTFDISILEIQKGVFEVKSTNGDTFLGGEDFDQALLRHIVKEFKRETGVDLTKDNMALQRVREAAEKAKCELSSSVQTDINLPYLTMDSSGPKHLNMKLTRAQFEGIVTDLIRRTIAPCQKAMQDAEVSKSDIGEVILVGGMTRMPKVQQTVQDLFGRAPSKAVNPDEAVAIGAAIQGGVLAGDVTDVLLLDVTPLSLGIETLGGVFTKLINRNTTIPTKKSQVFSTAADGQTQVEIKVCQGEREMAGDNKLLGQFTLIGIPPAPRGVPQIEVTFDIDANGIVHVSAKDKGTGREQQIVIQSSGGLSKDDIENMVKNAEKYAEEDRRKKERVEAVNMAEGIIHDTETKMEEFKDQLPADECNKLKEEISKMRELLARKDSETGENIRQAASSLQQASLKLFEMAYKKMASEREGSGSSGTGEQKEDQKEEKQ
UniProt P11142: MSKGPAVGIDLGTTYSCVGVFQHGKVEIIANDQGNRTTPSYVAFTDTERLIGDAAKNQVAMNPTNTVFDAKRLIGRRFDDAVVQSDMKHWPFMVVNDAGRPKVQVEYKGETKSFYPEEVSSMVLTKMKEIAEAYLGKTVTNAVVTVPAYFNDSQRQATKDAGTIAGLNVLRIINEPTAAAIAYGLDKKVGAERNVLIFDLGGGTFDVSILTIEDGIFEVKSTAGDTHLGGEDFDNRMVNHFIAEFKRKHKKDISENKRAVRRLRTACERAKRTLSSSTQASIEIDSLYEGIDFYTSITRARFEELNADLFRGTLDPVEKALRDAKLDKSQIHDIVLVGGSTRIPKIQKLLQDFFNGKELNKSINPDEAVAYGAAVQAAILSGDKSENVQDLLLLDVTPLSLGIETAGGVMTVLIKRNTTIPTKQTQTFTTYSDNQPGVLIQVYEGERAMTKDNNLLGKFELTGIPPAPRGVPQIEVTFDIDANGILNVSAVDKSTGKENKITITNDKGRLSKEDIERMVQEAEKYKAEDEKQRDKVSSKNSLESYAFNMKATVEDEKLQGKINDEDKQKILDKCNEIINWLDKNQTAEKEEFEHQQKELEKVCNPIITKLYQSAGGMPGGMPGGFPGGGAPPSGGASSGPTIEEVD

No constants are given. Whether binding was seen depends on the method and setting. In cells and extracts the contact can be indirect. A yes stands for co-enrichment or nearness to the bait. Other partners may have been found. Tags and fused reporters may be left off the sequences shown.

To fix the notation:
B1: S100A9 (protein, UniProt P06702 1-114)
chain: MTCKMSQLERNIETIINTFHQYSVKLGHPDTLNQGEFKELVRKDLQNFLKKENKNEKVIEHIMEDLDTNADKQLSFEEFIMLMARLTWASHEKMHEGDEGPGHHHKPGLGEGTP

In the assay the target is T1, FLAG-tagged NUPR1 (human) (UniProt O60356).
T1 sequence: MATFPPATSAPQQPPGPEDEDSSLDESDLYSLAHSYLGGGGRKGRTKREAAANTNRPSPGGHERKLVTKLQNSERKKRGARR
Briefly: affinity purification with mass spectrometry; lysates of MCF-7TamR cells stably expressing FLAG-NUPR1 on anti-FLAG M2 affinity beads, no more than 3 h at 4 °C; eluted with FLAG peptide; SDS-PAGE, silver staining, LC-MS/MS of bands; FLAG empty vector as control.
Take ANXA2 (from UniProt P07355 1-339): the binding result was “binds”. With TRIM21 (from UniProt P19474 1-475), the binding result was “binds”. Turning to YBX1 (from UniProt P67809 1-324), the binding entry is “binds”. Next, HSPA5 (from UniProt P11021 19-654): “binds”.

In the case of “ESR1 (estrogen receptor alpha), endogenous (from UniProt P03372 1-595)”, the binding entry was “binds”. Next, HSPA4 (from UniProt P34932 1-840): “binds”; HSPA9 (from UniProt P38646 47-679): “binds”; HSPA8 (from UniProt P11142 1-646): “binds”. Take B1: the binding result was “binds”.
